This passage reports AC50 and cell number change results from PubChem BioAssay AID2685 (National Center for Advancing Translational Sciences (NCATS), 2010).

Some of the results follow. Further columns of the screen follow, without active or inactive calls. The list favours compounds with an active or inconclusive main result. Words in brackets tell the shape of the fitted curve; partial curves, single points and poor fits give uncertain potencies.

The test in a line: qHTS Assay for Lipid Storage Modulators in Drosophila S3 Cells.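 On cell number change: cells counted by Cell Tracker Red CMTPX staining in the red channel.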 The note with it: BODIPY lipid droplet fluorescence, 18-24 h; for cell number change: measured here: cell count max response, cells fed with added oleic acid. Put shortly: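 Laser-scanning cytometry quantifies lipid droplet accumulation (500–530 nm total intensity; droplet/cell object ratio) in oleic acid-fed (400 uM added) Drosophila S3 cells treated with a concentration series. 20 uM Triacsin C defined 100% inhibition.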
In general terms: In qHTS, concentration-response curves come from the screen itself.

[1] abbreviates: measured here: lipid fluorescence (Fed channel) AC50, cells fed with added oleic acid.
Setting [2] is: measured here: cell number channel AC50, cells fed with added oleic acid.

Broadly, the AC50 is the concentration giving half of the maximal activity seen. Higher therefore signals weaker potency. For `CC(C)N(C(=O)c1ccc2nc(-c3ccccc3)c(-c3ccccc3)nc2c1)C(C)C`, under setting [1], the AC50 was 23.1 µM [falling, partial curve].

In the case of `Cc1cc(Cl)ccc1OCC(=O)OCC(=O)NC1CCCC1`, the cell number change is -3.88%. Further, the AC50 under setting [1] is 32.6 µM [falling, partial curve, poor fit].

For the compound `O=C(c1ccc(CSCc2ccccc2F)o1)N1CCN(c2ccc(N3CCOCC3)nn2)CC1`, the cell number change is 123%. Also, under setting [2], the concentration at half-maximal activity (AC50) was 3.66 µM [rising, full curve].

Consider `CCN1C(=O)CSC1=NC1C2CC3CC(C2)CC1C3` (configuration not stated), for which the cell number change was -49%. The AC50 under setting [2] was 29.1 µM [falling, single point].

For the compound `O=C1CSC(=S)N1CC1CCCO1` (configuration not stated), the cell number change is -0.13%. The AC50 under setting [1] was 18.4 µM [rising, partial curve, poor fit].

For the compound `COn1c(-c2ccccc2)nc2ccc(Cl)cc21`, the cell number change was -62.4%.

`O=C1C(Cc2cccc([N+](=O)[O-])c2)S/C(=N/N=C/c2ccco2)N1c1ccccc1` (configuration not stated): the cell number change was -22.1%. The AC50 under setting [2] is 6.51 µM [falling, single point]. In addition, the AC50 under setting [1] was 29.1 µM [rising, single point].

For the compound `COc1ccc(C(C)=O)cc1CSC(=N)N`, the cell number change was found to be 17.1%.

For `CCCCn1c(SCn2nnc3ccccc3c2=O)nc2cc(C(=O)OC)ccc2c1=O`, the cell number change is -7.49%. In addition, the AC50 under setting [2] is 0.00411 µM [falling, full curve, poor fit].

Turning to `O=C(NC1CCCc2ccccc21)c1n[nH]c(=O)c2ccccc12` (configuration not stated), the cell number change stood at 19.4%. Further, under setting [2], the AC50 is 0.0731 µM [falling, full curve, poor fit]. Further, the AC50 under setting [1] is 9.2 µM [rising, single point].

For `COc1ccc(-n2nc(C(=O)NCC(=O)N3CC(C)CC(C)C3)c3ccccc3c2=O)cc1OC` (configuration not stated), the cell number change was determined as 38.5%. The AC50 under setting [2] was 14.6 µM [rising, partial curve, poor fit]. Besides, under setting [1], the AC50 is 5.17 µM [falling, single point].

Turning to `CCN1/C(=C/C=C/C=C/c2sc3ccccc3[n+]2CC)Sc2ccccc21`, the cell number change is -81.8%. For the same compound, the AC50 under setting [2] is 1.03 µM [falling, full curve]. Also, under setting [1], the AC50 is 1.3 µM [falling, full curve].

For `Cc1ccc(CNC(=O)CN2C(=O)COc3ccc(S(=O)(=O)N4CCC(C)CC4)cc32)o1`, the cell number change was determined as 9.56%.

With `OC1CCN(C(=S)Nc2ccc(Nc3ccccc3)cc2)CC1`, the cell number change was -27.9%.

On to `CC1CCc2[nH]c3ccc(C(=O)Nc4ccc(C(=O)N(C)C)cc4)cc3c2C1` (configuration not stated), for which the cell number change is -2.16%.

As to `CCc1ccc(NC(=O)CCC(=O)Nc2nnc(C(C)C)s2)cc1`, the cell number change came out at 6.49%. In addition, the AC50 under setting [1] is 29.1 µM [falling, single point].

As to `COC(=O)c1ccc(C)c(N(CCO)CCO)c1`, the cell number change was 5.83%. Moreover, under setting [1], the AC50 was 6.51 µM [falling, single point].

Take `CC(C(=O)N=Nc1c(O)[nH]c2ccccc12)n1cnc2ccccc2c1=O` (configuration not stated): the cell number change amounted to 58.1%. The AC50 under setting [2] was 18.4 µM [rising, single point]. Under setting [1], the AC50 was 0.291 µM [rising, partial curve, poor fit].

With `O=C(Nc1nnc(S(=O)(=O)N2CCCC2)s1)c1cccc([N+](=O)[O-])c1`, the cell number change was -11.8%. Further, the AC50 under setting [1] is 2.06 µM [rising, partial curve].

For `CC1(c2ccc3noc(-c4ccc(Cl)cc4)c3c2)OCCO1`, the cell number change was determined as 30.7%. In addition, the AC50 under setting [2] was 20.6 µM [rising, single point].

As for `O=C1C(=O)N2C(=C1C(=O)N1CCCCCC1)c1ccccc1CC21CCCC1`, the AC50 under setting [1] was 0.731 µM [falling, full curve].

Regarding `O=S(=O)(Nc1ccc2nc(C(F)(F)F)[nH]c2c1)c1ccccc1`, the cell number change was -30.5%. In addition, under setting [2], the AC50 is 10.3 µM [falling, partial curve].

With `CCCCCn1nc(C(=O)N(CC(C)C)c2c(N)n(CCCC)c(=O)[nH]c2=O)c2ccccc2c1=O`, the cell number change turned out to be 32.4%. In addition, the concentration at half-maximal activity (AC50) under setting [2] was 3.26 µM [rising, partial curve]. Further, the AC50 under setting [1] was 4.11 µM [rising, partial curve].

Regarding `O=C(Nc1ccccc1F)Nc1ccccc1N1CCCCC1`, the cell number change is -22.9%. Moreover, the AC50 under setting [1] is 23.1 µM [falling, partial curve].

For `O=C(CSc1nnnn1-c1cccc2c1CCCC2)N1CCCC1`, the cell number change is -31.4%. Besides, under setting [2], the AC50 is 0.206 µM [falling, full curve, poor fit]. The AC50 under setting [1] is 0.231 µM [falling, full curve, poor fit].

Take `Cc1ccc(-c2nnc(C)c(N3CCOCC3)n2)cc1`: the cell number change was found to be 14%. Moreover, under setting [1], the concentration at half-maximal activity (AC50) is 0.259 µM [falling, full curve, poor fit].

For the compound `COc1cccc(-n2c(COc3ccc(C)cc3)nnc2SCC(=O)O)c1`, the cell number change came to 11.4%.

For the compound `O=[N+]([O-])c1cc(Br)c2nsnc2c1N1CCOCC1`, the cell number change amounted to 3.86%. Under setting [1], the AC50 was 2.31 µM [falling, partial curve].

Regarding `Cc1ccc(CSc2nnc(-c3ccncc3)n2CC2CCCO2)cc1` (configuration not stated), the AC50 under setting [1] was 0.0058 µM [rising, full curve, poor fit].

Turning to `Cc1cc(C)cc(Nc2cnn(C34CC5CC(CC(CC(=O)O)(C5)C3)C4)c(=O)c2Cl)c1`, under setting [1], the AC50 is 0.259 µM [falling, partial curve].

For `CN1CCN(C(c2cccc(Cl)c2)c2ccccc2Cl)CC1` (configuration not stated), the cell number change is -21.8%. The AC50 under setting [1] is 9.2 µM [falling, partial curve].

On to `COc1ccc(/C=N/NC(=O)c2cc(Br)ccc2O)cc1Cn1cc(Cl)cn1`, for which the cell number change is -61.6%. Further, the AC50 under setting [2] is 20.6 µM [falling, single point]. Further, the AC50 under setting [1] was 0.13 µM [falling, full curve, poor fit].

In the case of `CC(=O)Nc1sc(C)c(C)c1C(=O)OCC(=O)NC(C)c1ccccc1` (configuration not stated), the cell number change stood at 2.45%.

In the case of `CC1CCN(S(=O)(=O)c2cccc(C(=O)Nc3ccccn3)c2)CC1`, under setting [2], the AC50 is 6.51 µM [rising, single point].

As to `O=C(Nc1ccc2c(c1)OCO2)C1CC(c2cccc(Br)c2)=NO1` (configuration not stated), the cell number change stood at 19.3%. Moreover, under setting [1], the AC50 is 20.6 µM [rising, single point].

Regarding `CCCS(=O)(=O)N1CCC(C(=O)Oc2ccc(OC)cc2)CC1`, the cell number change is 10.1%. In addition, the concentration at half-maximal activity (AC50) under setting [1] is 0.731 µM [rising, single point].

Consider `CCOc1ccc(N2CC(C(=O)Nc3nnc(Cc4ccc(OC)c(OC)c4)s3)CC2=O)cc1` (configuration not stated), for which the cell number change was found to be 2.63%.

Consider `CCOc1ccc2oc(C(=O)Nc3ccc(N4CCOCC4)cc3)c(C)c2c1`, for which the cell number change came to 66.1%. Also, the AC50 under setting [2] was 29.1 µM [rising, single point]. Besides, under setting [1], the half-maximal activity concentration (AC50) is 0.231 µM [falling, full curve, poor fit].
